Percent effect of library compounds

Sequences of proteins named here, by UniProt entry; tags and fusion partners are left off. Residues count along the entry.
UniProt A4I591, 1-473: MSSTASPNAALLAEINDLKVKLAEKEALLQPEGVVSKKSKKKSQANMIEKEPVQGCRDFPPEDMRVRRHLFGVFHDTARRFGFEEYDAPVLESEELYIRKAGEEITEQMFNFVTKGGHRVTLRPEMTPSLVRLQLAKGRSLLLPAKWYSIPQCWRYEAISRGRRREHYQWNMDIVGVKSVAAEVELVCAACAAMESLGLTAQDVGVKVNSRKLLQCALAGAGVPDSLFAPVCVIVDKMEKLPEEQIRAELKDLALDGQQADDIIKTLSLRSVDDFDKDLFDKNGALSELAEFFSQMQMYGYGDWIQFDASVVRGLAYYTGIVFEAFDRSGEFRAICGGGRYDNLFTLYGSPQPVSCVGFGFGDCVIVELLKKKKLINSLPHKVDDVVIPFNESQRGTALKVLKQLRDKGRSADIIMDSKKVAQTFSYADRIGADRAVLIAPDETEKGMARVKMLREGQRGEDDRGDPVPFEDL
UniProt P9WFT3, whole entry: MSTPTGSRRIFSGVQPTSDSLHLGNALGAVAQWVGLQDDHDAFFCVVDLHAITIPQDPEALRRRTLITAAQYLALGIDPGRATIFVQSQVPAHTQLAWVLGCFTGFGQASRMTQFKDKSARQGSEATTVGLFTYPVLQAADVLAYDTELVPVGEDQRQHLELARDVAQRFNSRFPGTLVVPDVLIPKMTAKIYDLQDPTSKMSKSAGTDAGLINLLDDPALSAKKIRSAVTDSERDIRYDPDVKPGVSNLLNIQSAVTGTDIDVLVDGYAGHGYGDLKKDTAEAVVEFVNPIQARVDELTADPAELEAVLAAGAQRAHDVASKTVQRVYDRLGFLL

From ChEMBL document CHEMBL3988442, “University of Dundee, Small-Polar-MMV Screening Library” (2021).

LiHisRS: 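Histidine-tRNA ligase, Leishmania infantum (UniProt A4I591). Enzyme assay of histidyl-tRNA synthetase; the read-out is not stated. Concentration: 30 µM. Direction is inferred from retests: higher values go with stronger inhibition. The assay is labelled LdHisRS but filed under L. infantum. Size under these conditions: about 69,000 compounds, about 410 of them at 50% or above in at least one test.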
MtTrpRS: 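Enzyme assay of tryptophanyl-tRNA synthetase; the read-out is not stated. Target: Tryptophan-tRNA ligase, Mycobacterium tuberculosis (UniProt P9WFT3). Tested at 10 µM. Higher most likely means stronger inhibition; the record gives no direction and few retests gave an IC50. Of about 65,000 compounds tested this way, about 64 (0.098%) reached 50% or more in at least one test.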

Each number is a percent effect as filed. How 0% and 100% were set is not recorded. Most values in the screen are low, and negative values occur. The compounds are a random part of those screened.

Cc1ccc(CN(CCCn2ccnc2)Cc2c(F)cccc2F)s1 gave LiHisRS: 24.21%; MtTrpRS: 4.464%.
COc1cccc(OC)c1OCCn1c(C)c(C)oc1=O gave LiHisRS: 11.5%; MtTrpRS: -0.4188%.
CC1CCN(CCCNS(=O)(=O)Cc2ccccc2F)CC1 gave LiHisRS: -3.03%; MtTrpRS: -1.615%.
CCn1ccnc1CN1CCCN(C(=O)Cc2ccc(C)cc2)CC1 gave LiHisRS: 3.419%; MtTrpRS: -2.215%.
Cc1cnn(C2CN(Cc3nc4cc(Cl)ccc4n3C)C2)c1 gave LiHisRS: 25.33%; MtTrpRS: -1.162%.
Cc1n[nH]c(C)c1-c1cc(-c2ccc[nH]2)nc(N)c1C#N gave LiHisRS: 27.47%; MtTrpRS: 9.126%.
COc1c(C2CCCN2CC(=O)N2CCCCC2)c(C)nn1C (stereo unspecified) gave LiHisRS: 11.5%; MtTrpRS: -4.139%.
Cc1ccccc1CC(C)(C)NC(=O)CCOc1cccc(C(N)=O)c1 gave LiHisRS: 1.299%; MtTrpRS: 1.012%.
O=C(Cc1ccc(F)c(Br)c1)N1CCN(CCO)CC1 gave LiHisRS: 12.07%; MtTrpRS: 6.377%.
CSc1cccc(CN(C)C(=O)Cn2ncc(N(C)C)cc2=O)c1 gave LiHisRS: 13.11%; MtTrpRS: -1.449%.
CN(Cc1nc(C2CC2)no1)C(=O)C1COc2ccccc2C1 (stereo unspecified) gave LiHisRS: 12%; MtTrpRS: 5.29%.
CCSCCNC(=O)C(c1cccc(F)c1)N(C)C (stereo unspecified) gave LiHisRS: 15.38%; MtTrpRS: -6.424%.
CN(Cc1cncnc1)[C@H]1CN(Cc2ccco2)[C@@H]2CCCO[C@@H]21 gave LiHisRS: 19%; MtTrpRS: -0.07582%.
CCN(C)c1ccc(CNS(=O)(=O)C2CCOCC2)cc1F gave LiHisRS: -28.21%; MtTrpRS: -1.21%.
Cc1nnc(N2CCCC3(CN(Cc4ccncc4)CCO3)C2)o1 (stereo unspecified) gave LiHisRS: 5.714%; MtTrpRS: -1.398%.
O=C(N1CCOCC1)N1CCN(c2ccnc3ccsc23)CC1 gave LiHisRS: 12.9%; MtTrpRS: -2.271%.
Cc1occc1C(=O)Nc1ccc(C(=O)NC[C@H]2CCCN2)cc1 gave LiHisRS: 13.73%; MtTrpRS: -2.056%.
O=C(NCCNc1ncccn1)c1ccc(Cl)s1 gave LiHisRS: 19.35%; MtTrpRS: -1.886%.
COc1ncccc1C(=O)N1CC[C@H]2C[C@@H](c3nccs3)O[C@@H]2C1 gave LiHisRS: 17.95%; MtTrpRS: 0.000006%.
CN(C)C(=O)CN(C)C(=O)c1cnc(Cc2ccc(F)cc2)s1 gave LiHisRS: 10.68%; MtTrpRS: -4.085%.
Cc1cc(CN2CCc3nn(C)c(=O)cc3C2)no1 gave LiHisRS: 45.45%; MtTrpRS: 0.2018%.
CCOC(=O)CCNC(=O)N1CCN(c2nc3ccccc3n2C)CC1 gave LiHisRS: 20.39%; MtTrpRS: -5.402%.
O=C(C1CC1)N1CC2(CCN(CC3CC3)CC2)c2cc(F)ccc21 gave LiHisRS: 0%; MtTrpRS: -0.8892%.
CCN(C(c1cccnc1)c1ccc(F)c(F)c1)S(C)(=O)=O (stereo unspecified) gave LiHisRS: 9.524%; MtTrpRS: -0.9372%.
NCC1Cc2cc(-c3nccc(N4CCC(O)CC4)n3)cc(Cl)c2O1 (stereo unspecified) gave LiHisRS: 60%; MtTrpRS: 4.702%.
CC(C)n1ccnc1C1CCCN(c2cc(C(=O)NC3CC3)ccn2)C1 (stereo unspecified) gave LiHisRS: 2.083%; MtTrpRS: 37.59%.
O=C(c1ccsc1)N1C[C@H]2CN(Cc3cccnc3)C(=O)[C@H]2C1 gave LiHisRS: 22.86%; MtTrpRS: 3.58%.
CC(C)Oc1ccc(CNC(=O)C2CCS(=O)(=O)C2)cn1 (stereo unspecified) gave LiHisRS: -3.226%; MtTrpRS: -1.331%.
Cc1nnsc1C(=O)NCC1CCN(c2ccccn2)CC1 gave LiHisRS: 6.612%; MtTrpRS: -0.3127%.
CN1CCC(c2cccc(Cc3ccc(F)cc3)n2)CC1 gave LiHisRS: 11.11%; MtTrpRS: 1.087%.
Cc1ccc(N2CCC(C(=O)O)(n3ccc(C(C)C)n3)CC2)nn1 gave LiHisRS: 11.48%; MtTrpRS: 1.732%.
CCOc1nn(CC)cc1-c1nnc(SCc2ccccn2)n1C gave LiHisRS: 23.66%; MtTrpRS: 4.75%.
O=C(O)c1cc(-c2ccoc2)cc(S(=O)(=O)NCc2ccccn2)c1 gave LiHisRS: 17.95%; MtTrpRS: -2.773%.
O=C(NCc1cccc(F)c1F)c1cc(CN2CCCC(O)C2)on1 (stereo unspecified) gave LiHisRS: 8.511%; MtTrpRS: 4.251%.
CC(=O)N[C@@H]1C[C@H](c2ccc(OCCO)cc2)OC2(CCOCC2)C1 gave LiHisRS: 17.24%; MtTrpRS: 9.255%.
CS(=O)(=O)CCC(=O)Nc1ccsc1 gave LiHisRS: 13.73%; MtTrpRS: -4.852%.
CCn1ccnc1CN1CCN(CCOc2cccc(C#N)c2)CC1 gave LiHisRS: 20%; MtTrpRS: -4.403%.
CCc1nc(CC)n(CC(=O)N(C)Cc2ccc(F)cc2)n1 gave LiHisRS: 0.8929%; MtTrpRS: -1.398%.
COc1ccc(OC)c(S(=O)(=O)NCC2(OC)CCSC2)c1 (stereo unspecified) gave LiHisRS: 9.402%; MtTrpRS: 5.832%.
CCOc1ccccc1CN(CC)Cc1ccc(S(C)(=O)=O)cc1 gave LiHisRS: 22.39%; MtTrpRS: -0.455%.

The last 4 entries again:

CCn1ccnc1CN1CCN(CCOc2cccc(C#N)c2)CC1 gave LiHisRS: 20%; MtTrpRS: -4.403%.
CCc1nc(CC)n(CC(=O)N(C)Cc2ccc(F)cc2)n1 gave LiHisRS: 0.8929%; MtTrpRS: -1.398%.
COc1ccc(OC)c(S(=O)(=O)NCC2(OC)CCSC2)c1 (stereo unspecified) gave LiHisRS: 9.402%; MtTrpRS: 5.832%.
CCOc1ccccc1CN(CC)Cc1ccc(S(C)(=O)=O)cc1 gave LiHisRS: 22.39%; MtTrpRS: -0.455%.